Data as given in the supplement of paper PMC10849652.
The other results are listed elsewhere or left out.

Sequences of proteins named here, by UniProt entry; tags and fusion partners are left off. A change or cut given only in a name is not applied to a line headed by its entry.
UniProt P69892: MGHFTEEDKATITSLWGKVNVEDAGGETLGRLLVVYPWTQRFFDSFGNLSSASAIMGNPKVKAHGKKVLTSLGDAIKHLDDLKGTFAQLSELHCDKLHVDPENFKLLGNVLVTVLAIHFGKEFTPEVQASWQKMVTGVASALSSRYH
UniProt P10412, whole entry, looked up: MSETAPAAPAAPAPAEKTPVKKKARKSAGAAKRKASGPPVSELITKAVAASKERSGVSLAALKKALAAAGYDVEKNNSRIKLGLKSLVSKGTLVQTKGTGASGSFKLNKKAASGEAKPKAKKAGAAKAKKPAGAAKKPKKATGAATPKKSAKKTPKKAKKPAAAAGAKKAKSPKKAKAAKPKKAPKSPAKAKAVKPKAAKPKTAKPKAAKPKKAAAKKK
UniProt P06396, whole entry, looked up: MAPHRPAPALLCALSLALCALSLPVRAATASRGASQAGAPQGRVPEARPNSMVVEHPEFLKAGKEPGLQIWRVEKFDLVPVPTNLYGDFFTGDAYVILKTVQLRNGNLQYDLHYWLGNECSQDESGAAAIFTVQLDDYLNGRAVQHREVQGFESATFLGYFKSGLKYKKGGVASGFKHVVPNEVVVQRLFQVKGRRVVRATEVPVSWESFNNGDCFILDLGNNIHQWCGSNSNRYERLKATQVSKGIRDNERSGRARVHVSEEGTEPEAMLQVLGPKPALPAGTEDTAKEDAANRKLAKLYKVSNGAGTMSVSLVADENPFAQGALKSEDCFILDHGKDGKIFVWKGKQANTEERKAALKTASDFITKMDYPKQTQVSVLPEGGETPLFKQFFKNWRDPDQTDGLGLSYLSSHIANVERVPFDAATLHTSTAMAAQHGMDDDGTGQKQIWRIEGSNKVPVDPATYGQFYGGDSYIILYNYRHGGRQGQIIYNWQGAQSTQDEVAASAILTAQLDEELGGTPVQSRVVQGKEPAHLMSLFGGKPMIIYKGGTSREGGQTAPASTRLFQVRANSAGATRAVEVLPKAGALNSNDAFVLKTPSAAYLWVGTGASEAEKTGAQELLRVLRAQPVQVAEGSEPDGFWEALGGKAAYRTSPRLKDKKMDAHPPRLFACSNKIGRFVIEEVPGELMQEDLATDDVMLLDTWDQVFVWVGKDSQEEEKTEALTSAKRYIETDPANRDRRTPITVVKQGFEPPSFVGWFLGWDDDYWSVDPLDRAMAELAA
UniProt Q16836: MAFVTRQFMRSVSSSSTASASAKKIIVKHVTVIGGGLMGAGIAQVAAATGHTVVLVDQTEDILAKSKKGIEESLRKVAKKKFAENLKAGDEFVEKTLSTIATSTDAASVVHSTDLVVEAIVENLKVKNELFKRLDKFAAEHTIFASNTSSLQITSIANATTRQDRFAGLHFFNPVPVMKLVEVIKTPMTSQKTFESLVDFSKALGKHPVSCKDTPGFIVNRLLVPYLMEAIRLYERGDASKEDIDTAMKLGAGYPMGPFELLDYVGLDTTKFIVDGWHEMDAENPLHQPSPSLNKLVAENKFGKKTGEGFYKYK
UniProt Q9Y5Z4: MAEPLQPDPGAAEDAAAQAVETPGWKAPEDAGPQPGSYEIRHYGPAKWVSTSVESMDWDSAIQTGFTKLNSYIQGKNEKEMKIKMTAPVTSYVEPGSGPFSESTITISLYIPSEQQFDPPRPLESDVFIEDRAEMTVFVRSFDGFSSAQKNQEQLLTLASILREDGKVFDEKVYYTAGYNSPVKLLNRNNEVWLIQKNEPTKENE
UniProt Q9BXW7: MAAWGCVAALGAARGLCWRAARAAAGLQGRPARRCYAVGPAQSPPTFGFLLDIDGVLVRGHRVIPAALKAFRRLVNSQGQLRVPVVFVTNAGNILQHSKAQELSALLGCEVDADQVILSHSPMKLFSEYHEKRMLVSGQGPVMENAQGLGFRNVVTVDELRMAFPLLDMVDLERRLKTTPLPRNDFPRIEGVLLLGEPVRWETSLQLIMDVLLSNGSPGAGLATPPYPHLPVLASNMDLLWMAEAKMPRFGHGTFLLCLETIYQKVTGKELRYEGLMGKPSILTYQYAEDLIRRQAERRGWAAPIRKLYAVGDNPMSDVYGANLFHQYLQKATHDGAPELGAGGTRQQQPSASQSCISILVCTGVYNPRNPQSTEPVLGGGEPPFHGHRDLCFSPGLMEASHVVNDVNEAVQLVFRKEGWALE
UniProt P12081: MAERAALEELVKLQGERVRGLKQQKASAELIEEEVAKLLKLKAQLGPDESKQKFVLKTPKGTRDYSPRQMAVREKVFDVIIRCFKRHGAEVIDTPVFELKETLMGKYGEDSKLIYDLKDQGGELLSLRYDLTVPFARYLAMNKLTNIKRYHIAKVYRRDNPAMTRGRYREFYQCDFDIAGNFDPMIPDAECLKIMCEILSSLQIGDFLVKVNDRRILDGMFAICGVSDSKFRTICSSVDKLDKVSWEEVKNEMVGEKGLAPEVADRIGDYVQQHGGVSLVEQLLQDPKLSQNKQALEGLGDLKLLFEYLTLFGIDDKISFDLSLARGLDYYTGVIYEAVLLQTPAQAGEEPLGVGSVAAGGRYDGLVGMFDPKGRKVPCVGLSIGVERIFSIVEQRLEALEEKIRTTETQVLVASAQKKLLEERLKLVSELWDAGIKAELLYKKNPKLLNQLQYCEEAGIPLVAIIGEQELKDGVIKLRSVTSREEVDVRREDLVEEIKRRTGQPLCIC
UniProt Q9BQS7: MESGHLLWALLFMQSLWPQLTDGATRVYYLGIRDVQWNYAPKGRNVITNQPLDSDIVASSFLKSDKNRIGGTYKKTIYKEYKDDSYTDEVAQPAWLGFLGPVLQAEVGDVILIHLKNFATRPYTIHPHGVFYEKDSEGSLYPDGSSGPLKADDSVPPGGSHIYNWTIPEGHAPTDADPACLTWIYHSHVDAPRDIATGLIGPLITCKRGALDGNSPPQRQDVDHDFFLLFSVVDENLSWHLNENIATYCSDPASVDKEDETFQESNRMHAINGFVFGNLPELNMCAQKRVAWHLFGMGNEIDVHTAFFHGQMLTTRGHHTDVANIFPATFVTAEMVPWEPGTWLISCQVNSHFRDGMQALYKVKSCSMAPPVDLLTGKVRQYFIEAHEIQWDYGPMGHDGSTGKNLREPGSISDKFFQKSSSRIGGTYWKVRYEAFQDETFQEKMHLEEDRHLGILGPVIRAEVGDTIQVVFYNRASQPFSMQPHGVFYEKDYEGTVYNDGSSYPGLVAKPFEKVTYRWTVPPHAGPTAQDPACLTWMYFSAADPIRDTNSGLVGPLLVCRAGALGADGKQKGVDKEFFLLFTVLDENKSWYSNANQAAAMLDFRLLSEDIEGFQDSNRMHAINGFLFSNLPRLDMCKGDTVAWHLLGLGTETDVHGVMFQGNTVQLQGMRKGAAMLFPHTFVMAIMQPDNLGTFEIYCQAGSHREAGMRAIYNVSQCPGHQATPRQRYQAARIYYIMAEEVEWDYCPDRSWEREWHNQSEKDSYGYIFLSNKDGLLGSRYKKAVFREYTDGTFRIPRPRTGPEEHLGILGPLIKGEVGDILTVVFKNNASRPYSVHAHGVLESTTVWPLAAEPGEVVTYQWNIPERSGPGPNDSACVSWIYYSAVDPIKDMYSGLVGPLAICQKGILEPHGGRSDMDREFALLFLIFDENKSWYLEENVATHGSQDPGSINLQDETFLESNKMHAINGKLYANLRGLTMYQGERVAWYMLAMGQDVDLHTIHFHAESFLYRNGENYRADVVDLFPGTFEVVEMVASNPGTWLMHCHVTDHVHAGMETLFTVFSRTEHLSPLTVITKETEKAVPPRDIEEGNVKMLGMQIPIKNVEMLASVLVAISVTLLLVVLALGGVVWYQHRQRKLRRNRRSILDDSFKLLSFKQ
UniProt P00390: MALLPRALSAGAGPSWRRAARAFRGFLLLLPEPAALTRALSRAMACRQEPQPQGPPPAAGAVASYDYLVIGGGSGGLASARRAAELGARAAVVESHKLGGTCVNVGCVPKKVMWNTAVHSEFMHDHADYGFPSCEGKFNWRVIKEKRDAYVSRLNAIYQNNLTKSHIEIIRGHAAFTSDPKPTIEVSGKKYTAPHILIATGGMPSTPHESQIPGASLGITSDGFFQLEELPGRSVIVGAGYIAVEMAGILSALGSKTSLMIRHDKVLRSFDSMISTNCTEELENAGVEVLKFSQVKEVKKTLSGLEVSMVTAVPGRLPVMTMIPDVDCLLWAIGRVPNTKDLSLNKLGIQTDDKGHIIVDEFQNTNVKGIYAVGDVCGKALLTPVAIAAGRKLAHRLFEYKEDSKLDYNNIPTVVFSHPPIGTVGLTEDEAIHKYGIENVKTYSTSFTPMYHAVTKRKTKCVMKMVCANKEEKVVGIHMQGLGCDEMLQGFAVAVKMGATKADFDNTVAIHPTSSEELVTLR
UniProt Q13889: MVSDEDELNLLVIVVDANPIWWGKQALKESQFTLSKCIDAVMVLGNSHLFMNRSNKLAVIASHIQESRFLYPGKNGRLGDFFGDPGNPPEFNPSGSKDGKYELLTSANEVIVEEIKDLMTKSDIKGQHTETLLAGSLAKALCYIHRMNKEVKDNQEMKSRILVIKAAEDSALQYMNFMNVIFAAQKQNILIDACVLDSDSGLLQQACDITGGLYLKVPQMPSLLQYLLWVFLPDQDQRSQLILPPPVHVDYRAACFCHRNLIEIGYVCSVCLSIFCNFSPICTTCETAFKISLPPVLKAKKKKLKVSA
UniProt Q6AI08: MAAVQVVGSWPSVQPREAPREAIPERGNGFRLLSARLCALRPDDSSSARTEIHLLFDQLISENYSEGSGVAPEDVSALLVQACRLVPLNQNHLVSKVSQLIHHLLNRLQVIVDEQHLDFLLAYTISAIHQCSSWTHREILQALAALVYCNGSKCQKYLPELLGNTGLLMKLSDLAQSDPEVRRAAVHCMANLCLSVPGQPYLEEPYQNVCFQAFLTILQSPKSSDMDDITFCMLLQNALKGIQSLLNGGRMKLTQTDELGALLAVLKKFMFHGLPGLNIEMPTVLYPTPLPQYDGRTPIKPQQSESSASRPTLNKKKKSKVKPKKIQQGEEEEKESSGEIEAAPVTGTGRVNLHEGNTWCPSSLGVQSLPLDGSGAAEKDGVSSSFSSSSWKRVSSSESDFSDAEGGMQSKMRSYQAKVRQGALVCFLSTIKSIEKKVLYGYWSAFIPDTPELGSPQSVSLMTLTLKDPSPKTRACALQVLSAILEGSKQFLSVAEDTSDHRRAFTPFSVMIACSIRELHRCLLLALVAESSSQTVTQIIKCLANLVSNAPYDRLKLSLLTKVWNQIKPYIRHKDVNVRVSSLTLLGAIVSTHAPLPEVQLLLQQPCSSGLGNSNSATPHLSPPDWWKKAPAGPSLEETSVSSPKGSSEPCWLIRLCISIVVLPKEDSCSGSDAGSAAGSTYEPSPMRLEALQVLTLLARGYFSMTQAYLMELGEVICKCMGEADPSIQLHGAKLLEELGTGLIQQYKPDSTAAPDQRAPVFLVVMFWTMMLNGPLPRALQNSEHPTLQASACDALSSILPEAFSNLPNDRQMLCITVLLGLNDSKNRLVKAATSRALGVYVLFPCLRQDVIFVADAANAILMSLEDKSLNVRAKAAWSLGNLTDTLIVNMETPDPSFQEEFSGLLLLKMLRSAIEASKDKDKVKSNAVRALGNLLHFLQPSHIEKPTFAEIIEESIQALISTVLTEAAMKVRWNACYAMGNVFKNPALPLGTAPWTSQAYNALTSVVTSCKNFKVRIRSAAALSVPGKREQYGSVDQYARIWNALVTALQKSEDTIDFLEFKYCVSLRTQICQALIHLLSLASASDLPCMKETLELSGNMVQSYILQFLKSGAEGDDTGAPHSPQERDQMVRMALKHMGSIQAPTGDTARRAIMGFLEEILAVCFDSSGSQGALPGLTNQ
UniProt P29083: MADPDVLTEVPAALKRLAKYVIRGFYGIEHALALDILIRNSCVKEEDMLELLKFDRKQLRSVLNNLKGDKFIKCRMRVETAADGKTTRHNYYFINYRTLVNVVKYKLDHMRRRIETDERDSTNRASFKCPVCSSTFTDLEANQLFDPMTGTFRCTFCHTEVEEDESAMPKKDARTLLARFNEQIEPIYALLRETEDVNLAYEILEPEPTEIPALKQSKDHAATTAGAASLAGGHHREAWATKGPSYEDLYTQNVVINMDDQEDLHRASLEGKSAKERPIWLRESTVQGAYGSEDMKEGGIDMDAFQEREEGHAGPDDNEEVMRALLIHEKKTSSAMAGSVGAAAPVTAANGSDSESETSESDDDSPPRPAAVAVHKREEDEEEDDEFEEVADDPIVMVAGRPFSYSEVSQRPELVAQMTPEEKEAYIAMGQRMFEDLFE

Experiments:
Assay in all cases: log2 fold change, soluble protein after heating vs DMSO (PISA); higher = thermal stabilisation; K562 cells, 10 uM, 30 min; active = over 0.2 and 3.5 SD of the protein, either way, in both replicates (recomputed)
[1] = compound: CS(=O)(=O)c1ccc(-c2cnc(N)c(C(=O)Nc3ccccc3)n2)cc1
Method in brief: (§1)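 Soluble protein was quantified by TMTpro 16plex LC-MS/MS after channel sums were equalised. It was obtained as the supernatant after 21,000xg for 90 min from pooled aliquots of K562 cells (2×10^6 cells/mL, 10 μM compound, 30 min) heated for 3 min across 48°C-58°C and extracted in PBS with 0.5% NP-40 at 4°C. Thermal stability values are relative to control samples and come from duplicates. They are given as log2 fold changes.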

crizotinib = compound: C[C@@H](Oc1cc(-c2cnn(C3CCNCC3)c2)cnc1N)c1c(Cl)ccc(F)c1Cl [crizotinib]
Method in brief: as §1

[2] = compound: C[C@@H]1COCCN1C2=NC(=NC(=C2)C3(CC3)S(=O)(=O)C)C4=C5C=CNC5=CC=C4
Method in brief: as §1

[3] = compound: C[C@H](C1=CC=C(C=C1)C(=O)NC2=C3C=CNC3=NC=C2)N
Method in brief: as §1

duvelisib = compound: C[C@H](Nc1ncnc2nc[nH]c12)c1cc2cccc(Cl)c2c(=O)n1-c1ccccc1 [duvelisib]
Method in brief: as §1

gandotinib = compound: Cc1cc(Nc2cc(CN3CCOCC3)c3nc(C)c(Cc4ccc(Cl)cc4F)n3n2)n[nH]1 [gandotinib]
Method in brief: as §1

tozasertib = compound: Cc1cc(Nc2cc(N3CCN(C)CC3)nc(Sc3ccc(NC(=O)C4CC4)cc3)n2)n[nH]1 [tozasertib]
Method in brief: as §1

[4] = compound: Cc1cc(SCc2sc(-c3ccc(C(F)(F)F)cc3)nc2C)ccc1OCC(=O)O
Method in brief: as §1

doramapimod = compound: Cc1ccc(-n2nc(C(C)(C)C)cc2NC(=O)Nc2ccc(OCCN3CCOCC3)c3ccccc23)cc1 [doramapimod]
Method in brief: as §1

ispinesib = compound: Cc1ccc(C(=O)N(CCCN)[C@@H](c2nc3cc(Cl)ccc3c(=O)n2Cc2ccccc2)C(C)C)cc1 [ispinesib]
Method in brief: as §1

bafetinib = compound: Cc1ccc(NC(=O)c2ccc(CN3CC[C@H](N(C)C)C3)c(C(F)(F)F)c2)cc1Nc1nccc(-c2cncnc2)n1 [bafetinib]
Method in brief: as §1

[5] = compound: Cc1cccc(CC(=O)N2CCc3c2ccc(-c2cn(C)c4ncnc(N)c24)c3F)n1
Method in brief: as §1

nilotinib = compound: Cc1cn(-c2cc(NC(=O)c3ccc(C)c(Nc4nccc(-c5cccnc5)n4)c3)cc(C(F)(F)F)c2)cn1 [nilotinib]
Method in brief: as §1

[6] = compound: Cc1nc(Nc2n[nH]c3c2CN(C(=O)N[C@H](CN(C)C)c2ccccc2)C3(C)C)c2sccc2n1
Method in brief: as §1

dasatinib = compound: Cc1nc(Nc2ncc(C(=O)Nc3c(C)cccc3Cl)s2)cc(N2CCN(CCO)CC2)n1 [dasatinib]
Method in brief: as §1

[7] = compound: Cc1ncc(-c2ccnc(Nc3ccc(S(C)(=O)=O)cc3)n2)n1C(C)C
Method in brief: as §1

[8] = compound: Cn1cc(-c2ccc3c(c2)CCN3C(=O)Cc2cccc(C(F)(F)F)c2)c2c(N)ncnc21
Method in brief: as §1

[9] = compound: Cn1cc(-c2ccc3nnc(C(F)(F)c4ccc5ncccc5c4)n3n2)cn1
Method in brief: as §1

tipifarnib = compound: Cn1cncc1[C@@](N)(c1ccc(Cl)cc1)c1ccc2c(c1)c(-c1cccc(Cl)c1)cc(=O)n2C [tipifarnib]
Method in brief: as §1

mubritinib = compound: FC(F)(F)c1ccc(/C=C/c2nc(COc3ccc(CCCCn4ccnn4)cc3)co2)cc1 [mubritinib]
Method in brief: as §1

Measured: log2 fold change

HERC4 (UniProt Q5GLZ8)
inactive: [1] 0.033 | crizotinib -0.049 | [2] 0.086 | [3] -0.008 | duvelisib 0 | gandotinib -0.024 | tozasertib -0.008 | [4] 0.006 | doramapimod 0.017 | ispinesib 0.008 | bafetinib -0.059 | [5] -0.014 | nilotinib -0.04 | [6] -0.008 | dasatinib -0.012 | [7] -0.016 | [8] 0.057 | [9] -0.02 | tipifarnib -0.033 | mubritinib 0.039

HBG2 (UniProt P69892)
inactive: [1] -0.023 | crizotinib 0.097 | [2] 0.128 | [3] -0.164 | duvelisib 0.025 | gandotinib 0.089 | tozasertib 0.043 | [4] -0.024 | doramapimod 0.003 | ispinesib 0.124 | bafetinib 0.008 | [5] 0.043 | nilotinib 0.021 | [6] 0.014 | dasatinib 0.003 | [7] -0.01 | [8] 0.121 | [9] 0.015 | tipifarnib -0.137 | mubritinib 0.022

H1-4 (UniProt P10412)
inactive: [1] -0.036 | crizotinib 0.044 | [2] -0.633 | [3] 0.318 | duvelisib -0.266 | gandotinib 0.219 | tozasertib -0.059 | [4] -0.008 | doramapimod 0.066 | ispinesib -0.18 | bafetinib 0.313 | [5] -0.075 | nilotinib 0.047 | [6] 0.016 | dasatinib 0.135 | [7] -0.11 | [8] -0.365 | [9] -0.303 | tipifarnib 0.162 | mubritinib -0.062

GSN (UniProt P06396)
inactive: [1] -0.03 | crizotinib 0.033 | [2] 0.049 | [3] -0.011 | duvelisib -0.024 | gandotinib -0.054 | tozasertib -0.011 | [4] -0.029 | doramapimod -0.053 | ispinesib -0.018 | bafetinib -0.111 | [5] 0.027 | nilotinib 0.035 | [6] -0.018 | dasatinib -0.024 | [7] 0.07 | [8] 0.199 | [9] 0.01 | tipifarnib 0.082 | mubritinib -0.165

Two consecutive records already listed, for reference:
HERC4 (UniProt Q5GLZ8)
inactive: [1] 0.033 | crizotinib -0.049 | [2] 0.086 | [3] -0.008 | duvelisib 0 | gandotinib -0.024 | tozasertib -0.008 | [4] 0.006 | doramapimod 0.017 | ispinesib 0.008 | bafetinib -0.059 | [5] -0.014 | nilotinib -0.04 | [6] -0.008 | dasatinib -0.012 | [7] -0.016 | [8] 0.057 | [9] -0.02 | tipifarnib -0.033 | mubritinib 0.039

HBG2 (UniProt P69892)
inactive: [1] -0.023 | crizotinib 0.097 | [2] 0.128 | [3] -0.164 | duvelisib 0.025 | gandotinib 0.089 | tozasertib 0.043 | [4] -0.024 | doramapimod 0.003 | ispinesib 0.124 | bafetinib 0.008 | [5] 0.043 | nilotinib 0.021 | [6] 0.014 | dasatinib 0.003 | [7] -0.01 | [8] 0.121 | [9] 0.015 | tipifarnib -0.137 | mubritinib 0.022

Later entries.

HADH isoform 2 (UniProt Q16836)
inactive: [1] 0.052 | crizotinib 0.023 | [2] 0.07 | [3] -0.035 | duvelisib -0.002 | gandotinib 0.022 | tozasertib -0.033 | [4] -0.027 | doramapimod 0.019 | ispinesib 0.056 | bafetinib -0.005 | [5] 0.063 | nilotinib 0.049 | [6] -0.017 | dasatinib 0.093 | [7] -0.023 | [8] 0.051 | [9] 0.027 | tipifarnib 0.071 | mubritinib 0.131

HEBP2 (UniProt Q9Y5Z4)
inactive: [1] 0.025 | crizotinib 0.034 | [2] 0.018 | [3] -0.087 | duvelisib 0.02 | gandotinib 0.024 | tozasertib -0.008 | [4] -0.026 | doramapimod -0.042 | ispinesib 0.011 | bafetinib -0.022 | [5] -0.02 | nilotinib -0.032 | [6] -0.042 | dasatinib -0.011 | [7] 0.004 | [8] 0.026 | [9] 0.038 | tipifarnib -0.026 | mubritinib 0.029

HAGH (UniProt Q16775)
inactive: [1] 0.07 | crizotinib -0.008 | [2] 0.035 | [3] 0.005 | duvelisib 0.052 | gandotinib -0.019 | tozasertib -0.046 | [4] 0.019 | doramapimod -0.028 | ispinesib 0.004 | bafetinib -0.011 | [5] -0.013 | nilotinib 0.016 | [6] -0.021 | dasatinib -0.014 | [7] 0.05 | [8] 0.03 | [9] -0.065 | tipifarnib 0.018 | mubritinib 0.049

HDHD5 (UniProt Q9BXW7)
inactive: [1] 0.023 | crizotinib -0.02 | [2] -0.075 | [3] 0.019 | duvelisib 0.126 | gandotinib 0.068 | tozasertib -0.03 | [4] 0.086 | doramapimod -0.008 | ispinesib 0.019 | bafetinib 0.029 | [5] 0.004 | nilotinib -0.043 | [6] -0.088 | dasatinib -0.172 | [7] -0.012 | [8] 0.07 | [9] 0.064 | tipifarnib -0.127 | mubritinib -0.143

HARS (UniProt P12081)
inactive: [1] -0.008 | crizotinib 0.049 | [2] -0.001 | [3] -0.036 | duvelisib 0.021 | gandotinib -0.012 | tozasertib -0.024 | [4] -0.049 | doramapimod -0.018 | ispinesib 0.012 | bafetinib -0.07 | [5] -0.007 | nilotinib -0.006 | [6] -0.015 | dasatinib 0.056 | [7] -0.022 | [8] 0.009 | [9] 0.044 | tipifarnib 0.02 | mubritinib 0.015

HEPH isoform 3 (UniProt Q9BQS7)
inactive: [1] 0.018 | crizotinib -0.022 | [2] -0.085 | [3] 0.118 | duvelisib -0.035 | gandotinib -0.003 | tozasertib -0.002 | [4] 0.053 | doramapimod 0.052 | ispinesib -0.043 | bafetinib -0.08 | [5] -0.023 | nilotinib 0.009 | [6] -0.004 | dasatinib -0.005 | [7] -0.001 | [8] -0.028 | [9] -0.036 | tipifarnib 0.055 | mubritinib 0.011

GSR (UniProt P00390)
inactive: [1] 0.009 | crizotinib 0.046 | [2] 0.029 | [3] -0.085 | gandotinib 0.002 | [4] -0.02 | doramapimod -0.047 | ispinesib -0.003 | bafetinib -0.031 | [5] 0 | nilotinib -0.025 | [6] 0.02 | dasatinib 0.02 | [7] 0 | [8] 0.002 | [9] 0.022 | tipifarnib -0.058 | mubritinib 0.024

GTF2H3 (UniProt Q13889)
inactive: [1] 0.061 | crizotinib 0.049 | [2] -0.012 | [3] -0.003 | gandotinib -0.012 | [4] -0.2 | doramapimod 0.021 | ispinesib 0.023 | bafetinib -0.009 | [5] 0.058 | nilotinib 0.041 | [6] 0 | dasatinib 0.024 | [7] -0.064 | [8] -0.113 | [9] -0.02 | tipifarnib -0.025 | mubritinib 0.023

HEATR6 (UniProt Q6AI08)
inactive: [1] -0.044 | crizotinib 0.002 | [2] 0.05 | [3] 0.038 | duvelisib -0.03 | tozasertib 0.012 | [4] -0.042 | doramapimod -0.043 | ispinesib -0.065 | bafetinib -0.024 | nilotinib -0.008 | [6] 0.043 | dasatinib 0.047 | [7] -0.014 | [8] -0.001 | [9] 0.002 | tipifarnib -0.05 | mubritinib 0.015

HEATR5A (UniProt Q86XA9)
inactive: [1] -0.122 | crizotinib -0.238 | [2] 0.049 | [3] 0.146 | duvelisib -0.103 | gandotinib -0.067 | tozasertib 0.265 | [4] 0.059 | doramapimod 0.073 | ispinesib -0.129 | bafetinib -0.051 | [5] 0.036 | nilotinib -0.19 | [6] -0.067 | dasatinib -0.104 | [7] 0.042 | [8] 0.027 | [9] -0.004 | tipifarnib 0.005 | mubritinib 0.109

HAT1 (UniProt O14929)
inactive: [1] -0.011 | crizotinib 0.013 | [2] 0.007 | [3] -0.225 | gandotinib 0.019 | [4] 0.033 | doramapimod -0.04 | ispinesib 0.135 | bafetinib -0.115 | [5] 0.017 | nilotinib 0.004 | [6] -0.035 | dasatinib -0.044 | [7] -0.025 | [8] 0.024 | [9] 0.006 | tipifarnib 0.004 | mubritinib -0.033

GTF2E1 (UniProt P29083)
inactive: [1] 0.008 | crizotinib 0.02 | [2] 0.118 | [3] -0.088 | gandotinib -0.011 | [4] 0.059 | doramapimod -0.03 | ispinesib -0.028 | bafetinib 0.014 | [5] 0.037 | nilotinib -0.112 | [6] -0.168 | dasatinib -0.173 | [7] -0.032 | [8] 0.02 | [9] 0.093 | tipifarnib -0.13 | mubritinib 0.05
